## Drug screen on melanoma cell lines: cell count

Data from the primary screen of doi:10.1371/journal.pone.0140310, rounded.

All values are for the listed drug together with NVP-TAE684 (0.08 µM): COc1cc(N2CCC(N3CCN(C)CC3)CC2)ccc1Nc1ncc(Cl)c(Nc2ccccc2S(=O)(=O)C(C)C)n1

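The test systems are human melanoma cell lines, treated with two drugs together for 72 h and then stained and imaged. The read-out is cell count (nuclei) in % of the DMSO control; lower values mean stronger growth inhibition or killing. Every drug was used at one fixed concentration, the lower of two screened (a fifth of the higher). The file gives one value for each pair and line, without errors, so small differences may be noise.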 This is part of the screen, not chosen by result.

* CC1(C)NC(=O)N(c2ccc([N+](=O)[O-])c(C(F)(F)F)c2)C1=O at 1 µM : C32: 97.8; A101D: 97.9
* C[C@@H]1CCN(C(=O)CC#N)C[C@@H]1N(C)c1ncnc2[nH]ccc12 at 1 µM : C32: 92.7; A101D: 102
* O=C(Nc1cccc(Cl)c1)Nc1ncc(CCNc2ncnc3ccsc23)s1 at 0.0008 µM : C32: 88.3; A101D: 106
* CN1CCN(c2ccc3nc(-c4c(N)c5c(F)cccc5[nH]c4=O)[nH]c3c2)CC1 at 0.1 µM : C32: 66.2; A101D: 82.6
* CC[C@]1(O)C[C@H]2CN(CCc3c([nH]c4ccccc34)[C@@](C(=O)OC)(c3cc4c(cc3OC)N(C=O)[C@H]3[C@@](O)(C(=O)OC)[C@H](OC(C)=O)[C@]5(CC)C=CCN6CC[C@]43[C@@H]65)C2)C1 at 0.0001 µM : C32: 67.6; A101D: 66.9
* Cc1cc(Nc2cc(N3CCN(C)CC3)nc(Sc3ccc(NC(=O)C4CC4)cc3)n2)n[nH]1 at 0.006 µM : C32: 93.8; A101D: 86.8
* c1cc(-c2cnn3cc(-c4ccc(OCCN5CCCCC5)cc4)cnc23)ccn1 at 0.4 µM : C32: 98.5; A101D: 108
* NC(=O)c1ccc(N(C(N)=O)c2c(F)cccc2F)nc1-c1ccc(F)cc1F at 0.4 µM : C32: 84.6; A101D: 90.9
* O=c1[nH]nc(Sc2ncc([N+](=O)[O-])s2)n1-c1ccc2c(c1)OCCO2 at 0.2 µM : C32: 89.8; A101D: 97.7
* COc1ccc2c(c1)CCC1C2CCC2(C)C(NCCCCCCN3C(=O)C=CC3=O)CCC12 (centres undefined) at 0.4 µM : C32: 77.4; A101D: 97.3
* O=C(/C=C/c1cccnc1)NCCCCC1CCN(C(=O)c2ccccc2)CC1 at 0.01 µM : C32: 95.4; A101D: 77.5
* CC(C)CCN1c2nc(Nc3cc(F)c(O)c(F)c3)ncc2N(C)C(=O)C1C (centres undefined) at 0.2 µM : C32: 102; A101D: 97.5

For reference, 2 entries once more:

Partner,C32,A101D
CN1CCN(c2ccc3nc(-c4c(N)c5c(F)cccc5[nH]c4=O)[nH]c3c2)CC1 at 0.1 µM,66.2,82.6
COc1ccc2c(c1)CCC1C2CCC2(C)C(NCCCCCCN3C(=O)C=CC3=O)CCC12 (centres undefined) at 0.4 µM,77.4,97.3